{"source": "PubChem BioAssay AID504467", "about": "(National Center for Advancing Translational Sciences (NCATS), 2011)", "note": "Screen size: about 330,000 compounds; about 7,700 (2.3%) were called active. Inconclusive results, whose numbers are uncertain, are shown with a selection of clear calls. The call rests on the fitted dose curve; in most records, active means well fitted inhibition curve with a large enough effect; inconclusive means small, poorly fitted or top-dose-only effect, or effect the other way; inactive means flat fitted curve, though single readings scatter. Potencies of inconclusive entries are doubtful fits and often do not repeat. On the % scale 0 is the no-effect control and ±100 the full control effect; potency means the concentration at half of the fitted maximal effect."}
{"assay": "qHTS screen for small molecules that inhibit ELG1-dependent DNA repair in human embryonic kidney (HEK293T) cells expressing luciferase-tagged ELG1; further: nearly all actives have a fitted effect of over 55% in size", "details": "HEK293T ELG1-luciferase reporter, luminescence, 16 h, DNA damage induced by 5-fluorouridine; activity change, negative = inhibition: at 46.1 µM (top of the series)", "procedure,_shortened": "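Overnight (16 hr) co-exposure of 2,000 cells/well to 5-fluorouridine and compound at 37 °C preceded detection. Luciferase was quantified via ONE-Glo luminescence; loss of signal denotes inhibition.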"}
{"smiles": "O=C(O)CCN1C(=O)/C(=C\\c2ccc(-c3nc4ccccc4s3)o2)SC1=S", "Potency": "inconclusive: 20.6 µM [activator, single point]"}
{"smiles": "O=C(c1cnn2c(C(F)F)cc(-c3ccccc3)nc12)N1CCN2CCCC2C1", "note": "(centres undefined)", "Potency": "inconclusive: 25.9 µM [inhibitor, single point]"}
{"smiles": "CN=C1S/C(=C\\c2cn(CC(=O)OC)c3ccccc23)C(=O)N1C", "activity change, negative = inhibition": "inactive: -6.36%"}
{"smiles": "Cc1c(C(=O)OCc2nnc(-c3ccccc3)o2)oc2ccccc12", "activity change, negative = inhibition": "inactive: -5.88%"}
{"smiles": "Cc1nc2ccccc2c(=O)n1/N=C/c1ccccc1O", "Potency": "inconclusive: 11.6 µM [activator, partial curve]"}
{"smiles": "O=C(Cn1cnc([N+](=O)[O-])c1)c1ccc(F)cc1", "Potency": "inconclusive: 10 µM [activator, partial curve, poor fit]"}
{"smiles": "O=C(CSc1nccn1Cc1ccccc1)Nc1nccs1", "Potency": "inconclusive: 18.4 µM [activator, partial curve]"}
{"smiles": "COc1ccc(NC(=O)N(C)C[C@H]2Oc3c(NC(=O)c4nc5ccccc5s4)cccc3C(=O)N([C@@H](C)CO)C[C@H]2C)cc1", "activity change, negative = inhibition": "inactive: -9.64%"}
{"smiles": "Cn1nc(-c2ccc(N3CCN(CCO)CC3)c([N+](=O)[O-])c2)c2ccccc2c1=O", "Potency": "inconclusive: 11.6 µM [activator, partial curve, poor fit]"}
{"smiles": "CCOC(=O)Cc1csc(SCC(=O)N2CCN(c3ccccc3)CC2)n1", "activity change, negative = inhibition": "inactive: -22.8%"}
{"smiles": "CCc1ccc(NC(=O)CSc2nc(NS(=O)(=O)c3ccccc3)cc(=O)[nH]2)cc1", "activity change, negative = inhibition": "inactive: 9.65%"}
{"smiles": "CC(C)NC(=O)CSc1nc(Cc2ccccc2)nc2ccccc12", "activity change, negative = inhibition": "inactive: -5.92%"}
{"smiles": "O=C1NC2(CCCCC2)N=C1c1ccc(F)cc1", "activity change, negative = inhibition": "inactive: -2.01%"}
{"smiles": "CC(=O)n1cc(N(C(=O)CCl)c2ccc([N+](=O)[O-])cc2)c2ccccc21", "Potency": "active: 23.1 µM"}
{"smiles": "COc1cc(-n2c(C)nc3cc(C(=O)NCCN4CCOCC4)ccc32)cc(OC)c1OC", "Potency": "inconclusive: 16.4 µM [activator, partial curve]"}
{"smiles": "COc1cccc(NC(=S)N2c3ccccc3CC2C)c1", "note": "(centres undefined)", "activity change, negative = inhibition": "inactive: -1.52%"}
{"smiles": "Cn1nnnc1SCC(=O)N1CCc2ccccc2C1", "Potency": "inconclusive: 18.4 µM [activator, single point]"}
{"smiles": "CSc1nnc(Nc2ccccc2C)s1", "Potency": "inconclusive: 20.6 µM [activator, single point]"}
{"smiles": "CCc1nnc(NC(=O)c2ccc(N(C)S(=O)(=O)c3ccccc3)cc2)s1", "activity change, negative = inhibition": "inactive: -14%"}
{"smiles": "Cc1ccccc1NC(=O)C1CCN(C2=NS(=O)(=O)c3ccccc32)CC1", "activity change, negative = inhibition": "inactive: -0.272%"}
{"smiles": "COc1ccc(-c2n[nH]c(C)c2-c2ccc(Cl)cc2)c(O)c1OC", "Potency": "active: 11.6 µM"}
{"smiles": "NNC(=O)c1ccc(COc2ccc3ccccc3c2)o1", "Potency": "inconclusive: 6.51 µM [activator, partial curve, poor fit]"}
{"smiles": "O=S(=O)(NCc1cccs1)c1cccc2cccnc12", "Potency": "inconclusive: 1.16 µM [activator, single point]"}
{"smiles": "Cc1cc(C(=O)N/N=C/c2cccc(OC(=O)c3cccc(Br)c3)c2)n[nH]1", "Potency": "inconclusive: 29.1 µM [activator, single point]"}
{"smiles": "c1ccc(Nc2nnc(-c3cccc4ccccc34)o2)cc1", "Potency": "inconclusive: 2.91 µM [activator, full curve]"}
{"smiles": "COC(=O)c1cc(C)nc(N)c1C#N", "Potency": "inconclusive: 29.1 µM [activator, single point]"}
{"smiles": "c1cncc(-c2nnc(-c3cccnc3)nn2)c1", "Potency": "inconclusive: 25.9 µM [inhibitor, single point]"}
{"smiles": "CCCCN(CC)CCNC(=O)c1cc2c(=O)n(C)c3ccccc3c2s1", "Potency": "inconclusive: 14.6 µM [activator, partial curve]"}
{"smiles": "Cc1cccc(N2CCN(C(=O)C3CCN(S(=O)(=O)c4cccc5nsnc45)CC3)CC2C)c1", "note": "(centres undefined)", "Potency": "inconclusive: 18.4 µM [inhibitor, partial curve]"}
{"smiles": "COc1ccc(NC(=O)CSc2nc3[nH]c(=O)[nH]c(=O)c3s2)cc1OC", "Potency": "inconclusive: 7.3 µM [activator, partial curve, poor fit]"}
{"smiles": "COc1ccc(-c2nn(-c3ccccc3)cc2C=O)cc1[N+](=O)[O-]", "Potency": "inconclusive: 35.5 µM [inhibitor, single point]"}
{"smiles": "CCCCn1c(SCC(=O)c2ccccc2)nc2c1c(=O)[nH]c(=O)n2C", "activity change, negative = inhibition": "inactive: -24.2%"}
{"smiles": "COc1ccc(S(=O)(=O)N2CCCC(C(=O)NCc3ccncc3)C2)cc1", "note": "(centres undefined)", "Potency": "inconclusive: 20.6 µM [inhibitor, partial curve, poor fit]"}
{"smiles": "COc1ccc(COc2ccc3ccc(=O)oc3c2)cc1", "Potency": "inconclusive: 20.6 µM [activator, partial curve]"}
{"smiles": "CCOc1ccc2[nH]c(=O)c(CN(Cc3cccs3)Cc3nnnn3C(C)(C)C)cc2c1", "Potency": "inconclusive: 20.6 µM [inhibitor, single point]"}
{"smiles": "CC(C)CN(C(=O)COC(=O)c1ccc(Br)cc1)c1c(N)n(Cc2ccccc2)c(=O)[nH]c1=O", "activity change, negative = inhibition": "inactive: -13.4%"}
{"smiles": "Cc1cc2occ(CC(=O)OCC(=O)Nc3sc4c(c3C#N)CCC(C)C4)c2cc1C", "note": "(centres undefined)", "Potency": "inconclusive: 23.1 µM [activator, single point]"}
{"smiles": "Cc1ccc2nc(-c3sc4nc(C)cc(C)c4c3N)[nH]c2c1", "Potency": "inconclusive: 0.58 µM [activator, full curve]"}
{"smiles": "COc1ccccc1N1CCNC(C)C1=O", "note": "(centres undefined)", "activity change, negative = inhibition": "inactive: -0.325%"}
{"smiles": "Cc1ccc([N+](=O)[O-])cc1N(CC(=O)NC1CCCC1)S(C)(=O)=O", "Potency": "inconclusive: 6.51 µM [inhibitor, single point]"}
{"smiles": "Cc1sc(NC(=O)C2=COCCO2)c(C(N)=O)c1C", "Potency": "inconclusive: 7.3 µM [activator, partial curve]"}
{"smiles": "COc1ccc(Nc2nc(NCc3ccco3)nc(N/N=C/c3ccccc3F)n2)cc1", "Potency": "inconclusive: 20.6 µM [inhibitor, single point]"}
{"smiles": "COc1cc(NC(=O)C2CC(c3ccccc3Cl)=NO2)cc(OC)c1OC", "note": "(centres undefined)", "Potency": "inconclusive: 9.2 µM [inhibitor, partial curve, poor fit]"}
{"smiles": "Cc1cc(Oc2cc(N)cc([N+](=O)[O-])c2)ccc1Cl", "Potency": "inconclusive: 23.1 µM [activator, partial curve, poor fit]"}
{"smiles": "CCCOc1ccc(-c2c(=O)n(OCC(=O)OCC)c3ccccc3[n+]2[O-])cc1", "Potency": "inconclusive: 23.1 µM [activator, single point]"}
{"smiles": "Cc1ccc(S(=O)(=O)Nc2ccc(NC(=O)c3c(F)c(F)c(F)c(F)c3F)cc2)cc1", "Potency": "inconclusive: 16.4 µM [inhibitor, single point]"}
{"smiles": "O=C1C2C3C=CC(CC3)C2C(=O)N1c1ccccc1F", "note": "(centres undefined)", "activity change, negative = inhibition": "inactive: 1.13%"}
{"smiles": "COc1ccc(C(CC(=O)N2CCOCC2)c2c(OC)cc(OC)c3ccc(=O)oc23)cc1", "note": "(centres undefined)", "Potency": "inconclusive: 16.4 µM [activator, single point]"}
{"smiles": "CN(C)c1nccc(N(Cc2ccccc2)Cc2ccccc2)c1C#N", "Potency": "inconclusive: 29.1 µM [activator, single point]"}
{"smiles": "Cc1ccc(-n2nnnc2-c2cnn(-c3cccc(F)c3)c2C(F)(F)F)cc1", "Potency": "inconclusive: 13 µM [inhibitor, partial curve, poor fit]"}
{"smiles": "COc1ccc(C(C)=O)c(Oc2ccc(S(=O)(=O)N3CCOCC3)cn2)c1", "activity change, negative = inhibition": "inactive: -9.78%"}
{"smiles": "CCOc1ccc(-c2cc(N3C(=O)Nc4ccccc4N3O)n[nH]2)cc1", "activity change, negative = inhibition": "inactive: 6.71%"}
{"smiles": "ONC(=Nc1ccccc1Cl)c1ccccc1Cl", "Potency": "inconclusive: 18.3 µM [inhibitor, single point]"}
{"smiles": "COc1ccc(C(CNS(=O)(=O)c2ccc(NC(C)=O)c(OC)c2)N2CCCCC2)cc1", "note": "(centres undefined)", "activity change, negative = inhibition": "inactive: 27.3%"}
{"smiles": "Cc1cccc(NC(=O)CN2CCC(NC(=O)C3CCCCC3)CC2)c1C", "activity change, negative = inhibition": "inactive: -8.52%"}
{"smiles": "CCCCCCC(=O)N1CCC(c2nc3c(nnn3Cc3ccccc3Cl)c(=O)[nH]2)CC1", "Potency": "inconclusive: 10.3 µM [inhibitor, partial curve]"}
{"smiles": "Cc1ccc(C(=O)N2CCN(c3ccc(C(F)(F)F)cn3)CC2)o1", "Potency": "inconclusive: 29.1 µM [inhibitor, partial curve, poor fit]"}
{"smiles": "CC[C@]12c3[nH]c4ccc(Cl)cc4c3CCN1C(=O)[C@@H](CC(=O)NCC13CC4CC(CC(C4)C1)C3)C[C@@H]2C(=O)N1CCN(C(=O)C2CC2)CC1", "Potency": "inconclusive: 29.1 µM [inhibitor, single point]"}
{"smiles": "CCn1c(Oc2ccc(F)cc2)nc2c1c(=O)n(C)c(=O)n2C", "Potency": "active: 8.2 µM"}
{"smiles": "Cc1csc(CNC(=O)C2CCC(=O)N(CCCc3ccccc3)C2)n1", "note": "(centres undefined)", "activity change, negative = inhibition": "inactive: 6.14%"}
{"smiles": "COc1ccc(-c2noc(CN(C)C(=O)c3ccoc3C)n2)cc1OC", "activity change, negative = inhibition": "inactive: 4.09%"}
{"smiles": "O=C(c1ccc(-n2c(SCc3cc(F)ccc3F)nc3ccccc3c2=O)cc1)N1CCOCC1", "Potency": "inconclusive: 16.4 µM [inhibitor, partial curve]"}
{"smiles": "CCCNC(=O)CC(NS(=O)(=O)c1ccc(OC)cc1)c1ccco1", "note": "(centres undefined)", "activity change, negative = inhibition": "inactive: 5.85%"}
{"smiles": "O=C(Cc1sc(-c2ccccc2Cl)nc1-c1ccccc1)Nc1ccc(F)cc1", "Potency": "inconclusive: 29.1 µM [activator, single point]"}
{"smiles": "c1ccc(-c2cn(-c3ccccc3)c3[n+]2CCCS3)cc1", "Potency": "active: 20.6 µM"}
{"smiles": "CCN1C(=O)[C@@H]2[C@H](C1=O)[C@@H]1C(=O)Nc3ccccc3C(=O)N1[C@@H]2c1ccc(OC)cc1", "Potency": "inconclusive: 3.16 µM [activator, single point]"}
{"smiles": "CC/C(C)=N\\N=C\\c1c(O)n(CC)c2cc(C3=NNC(=O)CC3)ccc12", "Potency": "inconclusive: 25.9 µM [inhibitor, single point]"}
{"smiles": "O=C(COC(=O)c1cc(Br)ccc1Cl)NC1CC1", "Potency": "inconclusive: 14.6 µM [activator, partial curve, poor fit]"}
{"smiles": "CC1(C)CC(=O)C2=C(C1)N(c1ccccc1)C(N)=C(C#N)C2c1ccsc1", "note": "(centres undefined)", "activity change, negative = inhibition": "inactive: -12.4%"}
